Measured values taken from the supplement of paper PMC10382679.
Single values of this set are uncertain.

B1: Rpb7; numbered along this chain (parent)
chain: MFFIKDLSLNITLHPSFFGPRMKQYLKTKLLEEVEGSCTGKFGYILCVLDYDNIDIQRGRILPTDGSAEFNVKYRAVVFKPFKGEVVDGTVVSCSQHGFEVQVGPMKVFVTKHLMPQDLTFNAGSNPPSYQSSEDVITIKSRIRVKIEGCISQVSSIHAIGSIKEDYLGAI

What was measured:
[1] = variants of: B1; assay: log2 fold change of mutant abundance, UV-irradiated vs unirradiated; higher = more UV resistant (enriched after UV); settings: with Saccharomyces cerevisiae rad7Δ rad26Δ; UV dose (J/m2): 10; genetic background: rad7Δ rad26Δ rpb7Δ + plasmid RPB7 library; outgrowth: 10 cell divisions
Experimental: (§1)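 Error-prone PCR random mutant library of yeast RPB7 (codons 2-171) on a LEU2 plasmid, shuffled into rad7Δ rad26Δ S. cerevisiae (BJ5465 background) with genomic RPB7 deleted. Cells were irradiated with 10 J/m2 UV (254 nm) or left unirradiated and grown for 10 divisions. Plasmid RPB7 amplicons were Illumina-sequenced and per-codon amino-acid counts were compared UV vs no UV with NOISeq (3 repeats, ARSyNseq batch correction). Positive log2FC means enrichment after UV, i.e. UV resistance / derepressed TCR.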

[2] = variants of: B1; assay: NOISeq theta enrichment statistic, UV-irradiated vs unirradiated (dimensionless); higher = more UV resistant (enriched after UV); settings: with Saccharomyces cerevisiae rad7Δ rad26Δ; UV dose (J/m2): 10; genetic background: rad7Δ rad26Δ rpb7Δ + plasmid RPB7 library; outgrowth: 10 cell divisions
Experimental: as §1

| Variant | log2 fold change of mutant abundance [1] | NOISeq theta enrichment statistic [2] |
| --- | --- | --- |
| MFFIKDLSLNITLHPSFFGPRMKQYLKTKLLEEVEGSCTGKFGYILCVLDYDNIDIQRGRILPTDGSAYFNVKYRAVVFKPFKGEVVDGTVVSCSQHGFEVQVGPMKVFVTKHLMPQDLTFNAGSNPPSYQSSEDVITIKSRIRVKIEGCISQVSSIHAIGSIKEDYLGAI [E69Y] | -0.0868 | -0.0679 |
| MFFIKDLSLNITLHPSFFGPRMKQYLKTKLLEEVEGSCTGKFGYILCVLDYDNIDIQRGRILPTDGSARFNVKYRAVVFKPFKGEVVDGTVVSCSQHGFEVQVGPMKVFVTKHLMPQDLTFNAGSNPPSYQSSEDVITIKSRIRVKIEGCISQVSSIHAIGSIKEDYLGAI [E69R] | -0.0492 | -0.042 |
| MFFIKDLSLNITLHPSFFGPRMKQYLKTKLLEEVEGSCTGKFGYILCVLDYDNIDIQRGRILPTDGSATFNVKYRAVVFKPFKGEVVDGTVVSCSQHGFEVQVGPMKVFVTKHLMPQDLTFNAGSNPPSYQSSEDVITIKSRIRVKIEGCISQVSSIHAIGSIKEDYLGAI [E69T] | -0.0457 | -0.038 |
| MFFIKDLSLNITLHPSFFGPRMKQYLKTKLLEEVEGSCTGKFGYILCVLDYDNIDIQRGRILPTDGSAQFNVKYRAVVFKPFKGEVVDGTVVSCSQHGFEVQVGPMKVFVTKHLMPQDLTFNAGSNPPSYQSSEDVITIKSRIRVKIEGCISQVSSIHAIGSIKEDYLGAI [E69Q] | -0.0717 | -0.109 |
| MFFIKDLSLNITLHPSFFGPRMKQYLKTKLLEEVEGSCTGKFGYILCVLDYDNIDIQRGRILPTDGSAVFNVKYRAVVFKPFKGEVVDGTVVSCSQHGFEVQVGPMKVFVTKHLMPQDLTFNAGSNPPSYQSSEDVITIKSRIRVKIEGCISQVSSIHAIGSIKEDYLGAI [E69V] | -0.0216 | -0.131 |
| MFFIKDLSLNITLHPSFFGPRMKQYLKTKLLEEVEGSCTGKFGYILCVLDYDNIDIQRGRILPTDGSAWFNVKYRAVVFKPFKGEVVDGTVVSCSQHGFEVQVGPMKVFVTKHLMPQDLTFNAGSNPPSYQSSEDVITIKSRIRVKIEGCISQVSSIHAIGSIKEDYLGAI [E69W] | -0.443 | -0.306 |
| MFFIKDLSLNITLHPSFFGPRMKQYLKTKLLEEVEGSCTGKFGYILCVLDYDNIDIQRGRILPTDGSASFNVKYRAVVFKPFKGEVVDGTVVSCSQHGFEVQVGPMKVFVTKHLMPQDLTFNAGSNPPSYQSSEDVITIKSRIRVKIEGCISQVSSIHAIGSIKEDYLGAI [E69S] | 0.238 | 0.251 |
| MFFIKDLSLNITLHPSFFGPRMKQYLKTKLLEEVEGSCTGKFGYILCVLDYDNIDIQRGRILPTDGSAEPNVKYRAVVFKPFKGEVVDGTVVSCSQHGFEVQVGPMKVFVTKHLMPQDLTFNAGSNPPSYQSSEDVITIKSRIRVKIEGCISQVSSIHAIGSIKEDYLGAI [F70P] | -0.404 | -0.219 |
| MFFIKDLSLNITLHPSFFGPRMKQYLKTKLLEEVEGSCTGKFGYILCVLDYDNIDIQRGRILPTDGSAEVNVKYRAVVFKPFKGEVVDGTVVSCSQHGFEVQVGPMKVFVTKHLMPQDLTFNAGSNPPSYQSSEDVITIKSRIRVKIEGCISQVSSIHAIGSIKEDYLGAI [F70V] | 0.0848 | 0.218 |
| MFFIKDLSLNITLHPSFFGPRMKQYLKTKLLEEVEGSCTGKFGYILCVLDYDNIDIQRGRILPTDGSAERNVKYRAVVFKPFKGEVVDGTVVSCSQHGFEVQVGPMKVFVTKHLMPQDLTFNAGSNPPSYQSSEDVITIKSRIRVKIEGCISQVSSIHAIGSIKEDYLGAI [F70R] | -0.112 | -0.0978 |
| MFFIKDLSLNITLHPSFFGPRMKQYLKTKLLEEVEGSCTGKFGYILCVLDYDNIDIQRGRILPTDGSAELNVKYRAVVFKPFKGEVVDGTVVSCSQHGFEVQVGPMKVFVTKHLMPQDLTFNAGSNPPSYQSSEDVITIKSRIRVKIEGCISQVSSIHAIGSIKEDYLGAI [F70L] | 0.097 | 0.417 |
| MFFIKDLSLNITLHPSFFGPRMKQYLKTKLLEEVEGSCTGKFGYILCVLDYDNIDIQRGRILPTDGSAECNVKYRAVVFKPFKGEVVDGTVVSCSQHGFEVQVGPMKVFVTKHLMPQDLTFNAGSNPPSYQSSEDVITIKSRIRVKIEGCISQVSSIHAIGSIKEDYLGAI [F70C] | -0.0833 | -0.179 |
| MFFIKDLSLNITLHPSFFGPRMKQYLKTKLLEEVEGSCTGKFGYILCVLDYDNIDIQRGRILPTDGSAESNVKYRAVVFKPFKGEVVDGTVVSCSQHGFEVQVGPMKVFVTKHLMPQDLTFNAGSNPPSYQSSEDVITIKSRIRVKIEGCISQVSSIHAIGSIKEDYLGAI [F70S] | -0.0807 | -0.141 |
| MFFIKDLSLNITLHPSFFGPRMKQYLKTKLLEEVEGSCTGKFGYILCVLDYDNIDIQRGRILPTDGSAEYNVKYRAVVFKPFKGEVVDGTVVSCSQHGFEVQVGPMKVFVTKHLMPQDLTFNAGSNPPSYQSSEDVITIKSRIRVKIEGCISQVSSIHAIGSIKEDYLGAI [F70Y] | -0.231 | -0.755 |
| MFFIKDLSLNITLHPSFFGPRMKQYLKTKLLEEVEGSCTGKFGYILCVLDYDNIDIQRGRILPTDGSAEINVKYRAVVFKPFKGEVVDGTVVSCSQHGFEVQVGPMKVFVTKHLMPQDLTFNAGSNPPSYQSSEDVITIKSRIRVKIEGCISQVSSIHAIGSIKEDYLGAI [F70I] | 0.0993 | 0.391 |
| MFFIKDLSLNITLHPSFFGPRMKQYLKTKLLEEVEGSCTGKFGYILCVLDYDNIDIQRGRILPTDGSAEFCVKYRAVVFKPFKGEVVDGTVVSCSQHGFEVQVGPMKVFVTKHLMPQDLTFNAGSNPPSYQSSEDVITIKSRIRVKIEGCISQVSSIHAIGSIKEDYLGAI [N71C] | -0.427 | -0.316 |
| MFFIKDLSLNITLHPSFFGPRMKQYLKTKLLEEVEGSCTGKFGYILCVLDYDNIDIQRGRILPTDGSAEFAVKYRAVVFKPFKGEVVDGTVVSCSQHGFEVQVGPMKVFVTKHLMPQDLTFNAGSNPPSYQSSEDVITIKSRIRVKIEGCISQVSSIHAIGSIKEDYLGAI [N71A] | 0.0886 | 0.0655 |

Record cards, as listed above. Values in the order: log2 fold change of mutant abundance [1]	NOISeq theta enrichment statistic [2]
MFFIKDLSLNITLHPSFFGPRMKQYLKTKLLEEVEGSCTGKFGYILCVLDYDNIDIQRGRILPTDGSAERNVKYRAVVFKPFKGEVVDGTVVSCSQHGFEVQVGPMKVFVTKHLMPQDLTFNAGSNPPSYQSSEDVITIKSRIRVKIEGCISQVSSIHAIGSIKEDYLGAI [F70R] in the list: -0.112	-0.0978
MFFIKDLSLNITLHPSFFGPRMKQYLKTKLLEEVEGSCTGKFGYILCVLDYDNIDIQRGRILPTDGSAEFCVKYRAVVFKPFKGEVVDGTVVSCSQHGFEVQVGPMKVFVTKHLMPQDLTFNAGSNPPSYQSSEDVITIKSRIRVKIEGCISQVSSIHAIGSIKEDYLGAI [N71C] in the list: -0.427	-0.316
